Reference: PubChem BioAssay AID540276 (National Center for Advancing Translational Sciences (NCATS), 2011)
Among all 300,000 compounds or so, about 5,400 (1.8%) were called active. The shares of active, inactive and inconclusive entries below differ from those in the screen. The call rests on the fitted dose curve; tested in HEK293 cells. Where the call is inconclusive, the potency comes from a doubtful curve fit.

Assay: qHTS for inhibitors of binding or entry into cells for Marburg Virus
Settings: Marburg virus pseudotyped entry inhibition, cell reporter; activity change, negative = inhibition: at 37.8 µM (top of the series) unless noted
On the % scale 0 is the no-effect control and ±100 the full control effect; potency means the concentration at half of the fitted maximal effect.

SMILES | Potency | activity change, negative = inhibition
Cc1cccc(Cn2cc(/C=C/[N+](=O)[O-])c3ccccc32)c1 | inconclusive: 18.3 µM [inhibitor, single point] | –
Fc1ccc(N2CCN(c3nc4ccccc4c4nc(-c5cccnc5)nn34)CC2)cc1 | – | inactive: 7.2% [at 46.1 µM]
FC(F)(F)c1cnc(-c2cnc(-c3ccncc3)nc2)c(Cl)c1 | inconclusive: 1 µM [activator, partial curve, poor fit] | –
Cc1ccccc1N1CC(C(=O)O)CC1=O (stereo not given) | – | inactive: 0.591%
OCc1cc(Br)ccc1OCc1nc2ccccc2s1 | inconclusive: 6.31 µM [activator, single point] | –
O=C(c1ccc([N+](=O)[O-])cc1)N1CCN=C1SCc1ccccc1 | inconclusive: 15.8 µM [inhibitor, single point] | –
CC(c1nnc(SCC(=O)Nc2cc([N+](=O)[O-])ccc2F)n1Cc1ccccc1)N(C)C (stereo not given) | – | inactive: -2.29% [at 46.1 µM]
Cc1nc2nc(SCC(=O)N(C)Cc3ccccc3)nn2c(C)c1Cc1ccccc1Cl | – | inactive: -8.5% [at 46.1 µM]
Cc1cc(C)c(S(=O)(=O)Nc2ccc(C(=O)O)cc2)cc1S(=O)(=O)Nc1ccc(C(=O)O)cc1 | – | inactive: -2.42%
CCOc1ccc(/C(CCC(=O)O)=N/NC(=O)c2cccc(S(=O)(=O)Nc3ccccc3OC)c2)cc1 | – | inactive: -3.61% [at 46.1 µM]
Cc1ccc(CN2CCC(CNC(=O)C3CCCN(c4ncnc5c4nc4n5CCCCC4)C3)CC2)cc1 (stereo not given) | inconclusive: 15.8 µM [inhibitor, partial curve, poor fit] | –
CC1CCN(S(=O)(=O)c2ccc(NC(=O)C3CCCCC3C(=O)O)cc2)CC1 (stereo not given) | – | inactive: 5.32% [at 46.1 µM]
CCOC(=O)c1nc(Nc2ccccc2)c2ccccc2n1 | – | inactive: 3.66%
Cn1c(CNc2ccc(Br)cc2)nc2ccccc21 | inconclusive: 14.1 µM [inhibitor, single point] | –
O=C(O)CCCCCNC(=O)c1ccncc1 | inconclusive: 32.6 µM [activator, partial curve, poor fit] | –
Cc1ccc(-n2ncc(C(=O)NCc3ccc4c(c3)OCO4)c2NC(=O)c2ccco2)cc1C | inactive | –
C[C@@](N)(C(=O)O)c1ccc(C(=O)O)cc1 | inactive | –
O=C(C1CC(=O)N(c2ccccc2)C1)N1CCN(c2ccccc2)CC1 (stereo not given) | inconclusive: 14.1 µM [activator, partial curve, poor fit] | –

SMILES | Potency | activity change, negative = inhibition
Clc1ccc(Cl)c(OCc2cc(-c3ccccc3Cl)on2)c1 | inconclusive: 14.1 µM [activator, partial curve] | –
COCCCNCCCOc1ccc(C(C)(C)c2ccccc2)cc1 | inconclusive: 23.1 µM [inhibitor, single point] | –
CCC(O)c1nc2ccccc2n1CCc1ccccc1 (stereo not given) | – | inactive: -0.627% [at 46.1 µM]
COc1ccc(Cl)cc1NC(=O)CSc1nnc(CN2CCOCC2)n1-c1ccc(Cl)cc1 | inconclusive: 16.4 µM [inhibitor, partial curve, poor fit] | –
COc1ccccc1/C=C/CN1CCCC(CCC(=O)NCc2ccc(F)c(F)c2)C1 (stereo not given) | inconclusive: 11.2 µM [inhibitor, partial curve, poor fit] | –
Cc1cc(=O)[nH]c(-c2ccccc2)n1 | – | inactive: 4.83%
CCC(C)[C@H](NC(=O)NCCCn1ccnc1)C(=O)OC (stereo not given in full) | inconclusive: 4.47 µM [activator, partial curve] | –
O=c1c(OC2OC(CO)C(O)C(O)C2O)c(-c2ccc(O)c(O)c2)oc2cc(O)cc(O)c12 (stereo not given) | active: 14.6 µM | –
CN1CCN(C(=O)CCN2C(=O)/C(=C/c3cccc(Br)c3)SC2=S)CC1 | inconclusive: 4.47 µM [inhibitor, partial curve, poor fit] | –
Cn1nnnc1SCC(=O)Nc1cccc([N+](=O)[O-])c1 | – | inactive: 8.1% [at 46.1 µM]
O=C(COc1ccc(Cl)cc1Cl)N/N=C/c1cccnc1 | inconclusive: 3.98 µM [inhibitor, full curve] | –
Cc1cccc(C)c1N1C(=O)CC(N2CCSCC2)C1=O (stereo not given) | – | inactive: -3.32%
COc1ccc(CNc2ncccc2[N+](=O)[O-])cc1 | inconclusive: 5.01 µM [activator, single point] | –
COc1cc2nc(N(C)CCCNC(=O)C3CCCO3)nc(N)c2cc1OC (stereo not given) | inconclusive: 20.6 µM [inhibitor, partial curve] | –
C=CCn1c(Cc2cccc3ccccc23)n[nH]c1=S | inconclusive: 0.398 µM [activator, partial curve, poor fit] | –
CCN(CC)S(=O)(=O)c1cccc(C(=O)NC(C(=O)Nc2nnc(C)s2)C(C)C)c1 (stereo not given) | – | inactive: -14.8%
COc1ccc(-c2noc(CN3CCOCC3)n2)cc1OC | inconclusive: 10 µM [activator, partial curve, poor fit] | –

Two of the compounds above, tab-delimited:
SMILES	Potency	activity change, negative = inhibition
COc1ccc(CNc2ncccc2[N+](=O)[O-])cc1	inconclusive: 5.01 µM [activator, single point]	–
COc1cc2nc(N(C)CCCNC(=O)C3CCCO3)nc(N)c2cc1OC (stereo not given)	inconclusive: 20.6 µM [inhibitor, partial curve]	–
